Measurements taken from the supplement of paper PMC10849652.
Some of the results follow.

By UniProt entry, the sequences of proteins in these tests, tags left out. Where a name states a change or a piece, a line headed by the entry shows the natural chain unless it says otherwise.
UniProt Q16881, whole entry, looked up: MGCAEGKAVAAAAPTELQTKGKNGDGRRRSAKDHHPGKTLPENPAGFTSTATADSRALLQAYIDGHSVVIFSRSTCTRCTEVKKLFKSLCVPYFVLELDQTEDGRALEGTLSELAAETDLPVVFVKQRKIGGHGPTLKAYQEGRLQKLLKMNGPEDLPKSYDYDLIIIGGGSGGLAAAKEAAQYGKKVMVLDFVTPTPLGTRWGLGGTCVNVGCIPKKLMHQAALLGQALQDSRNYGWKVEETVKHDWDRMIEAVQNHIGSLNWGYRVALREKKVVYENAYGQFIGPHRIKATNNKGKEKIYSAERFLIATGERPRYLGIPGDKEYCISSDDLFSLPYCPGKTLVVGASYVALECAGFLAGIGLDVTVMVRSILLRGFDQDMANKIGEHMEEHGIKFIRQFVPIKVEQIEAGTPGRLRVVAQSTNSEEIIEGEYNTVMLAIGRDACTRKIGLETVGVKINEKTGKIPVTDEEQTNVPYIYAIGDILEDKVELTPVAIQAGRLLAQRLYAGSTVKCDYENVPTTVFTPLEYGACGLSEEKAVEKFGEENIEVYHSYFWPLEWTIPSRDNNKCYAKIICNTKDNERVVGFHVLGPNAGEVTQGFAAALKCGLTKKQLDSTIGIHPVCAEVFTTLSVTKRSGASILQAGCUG
UniProt Q06418: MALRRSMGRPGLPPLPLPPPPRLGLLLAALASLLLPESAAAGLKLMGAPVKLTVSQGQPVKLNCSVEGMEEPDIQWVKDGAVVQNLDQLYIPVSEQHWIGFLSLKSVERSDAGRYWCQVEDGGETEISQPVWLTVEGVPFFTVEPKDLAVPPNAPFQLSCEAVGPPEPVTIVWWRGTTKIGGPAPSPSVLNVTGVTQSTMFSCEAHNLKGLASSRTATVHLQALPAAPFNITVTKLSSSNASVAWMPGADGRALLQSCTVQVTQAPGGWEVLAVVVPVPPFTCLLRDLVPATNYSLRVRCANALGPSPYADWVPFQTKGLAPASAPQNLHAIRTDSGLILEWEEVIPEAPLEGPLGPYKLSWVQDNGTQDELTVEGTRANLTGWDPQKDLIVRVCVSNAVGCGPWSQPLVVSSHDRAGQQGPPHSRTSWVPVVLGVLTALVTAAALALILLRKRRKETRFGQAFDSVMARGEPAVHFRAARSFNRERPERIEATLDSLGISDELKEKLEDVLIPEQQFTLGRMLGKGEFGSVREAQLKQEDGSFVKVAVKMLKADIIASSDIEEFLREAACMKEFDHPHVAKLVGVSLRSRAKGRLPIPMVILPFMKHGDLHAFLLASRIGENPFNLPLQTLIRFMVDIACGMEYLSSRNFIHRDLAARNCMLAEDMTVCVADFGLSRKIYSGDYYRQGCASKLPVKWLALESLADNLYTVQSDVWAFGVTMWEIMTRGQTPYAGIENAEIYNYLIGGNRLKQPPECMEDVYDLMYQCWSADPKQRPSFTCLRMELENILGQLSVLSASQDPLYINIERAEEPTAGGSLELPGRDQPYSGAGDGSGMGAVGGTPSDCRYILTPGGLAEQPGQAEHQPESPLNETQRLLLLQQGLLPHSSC
UniProt Q8N2K1: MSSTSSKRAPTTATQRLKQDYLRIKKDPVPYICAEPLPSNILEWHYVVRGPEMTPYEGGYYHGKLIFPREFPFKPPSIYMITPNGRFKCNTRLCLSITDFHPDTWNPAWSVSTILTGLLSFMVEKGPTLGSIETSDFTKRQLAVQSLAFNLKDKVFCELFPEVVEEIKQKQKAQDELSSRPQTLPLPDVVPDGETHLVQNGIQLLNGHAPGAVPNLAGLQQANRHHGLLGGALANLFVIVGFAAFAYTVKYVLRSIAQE
UniProt O95857: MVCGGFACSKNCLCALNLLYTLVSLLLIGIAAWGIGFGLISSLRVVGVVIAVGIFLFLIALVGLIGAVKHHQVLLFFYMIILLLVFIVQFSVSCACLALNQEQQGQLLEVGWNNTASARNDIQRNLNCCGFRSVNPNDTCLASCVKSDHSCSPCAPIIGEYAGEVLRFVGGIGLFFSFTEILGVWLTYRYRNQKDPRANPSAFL
UniProt Q9UJT1: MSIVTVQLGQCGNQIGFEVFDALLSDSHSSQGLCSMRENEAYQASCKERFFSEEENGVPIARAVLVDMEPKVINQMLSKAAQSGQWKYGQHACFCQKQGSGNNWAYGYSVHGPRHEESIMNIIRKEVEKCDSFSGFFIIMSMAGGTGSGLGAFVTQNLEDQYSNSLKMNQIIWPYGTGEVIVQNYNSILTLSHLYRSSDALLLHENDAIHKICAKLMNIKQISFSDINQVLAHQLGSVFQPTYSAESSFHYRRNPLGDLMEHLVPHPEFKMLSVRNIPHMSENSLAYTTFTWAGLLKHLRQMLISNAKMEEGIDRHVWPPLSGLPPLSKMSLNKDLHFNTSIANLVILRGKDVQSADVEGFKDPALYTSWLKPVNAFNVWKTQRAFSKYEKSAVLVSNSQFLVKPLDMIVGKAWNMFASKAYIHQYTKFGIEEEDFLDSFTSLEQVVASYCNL
UniProt Q3B726, whole entry, looked up: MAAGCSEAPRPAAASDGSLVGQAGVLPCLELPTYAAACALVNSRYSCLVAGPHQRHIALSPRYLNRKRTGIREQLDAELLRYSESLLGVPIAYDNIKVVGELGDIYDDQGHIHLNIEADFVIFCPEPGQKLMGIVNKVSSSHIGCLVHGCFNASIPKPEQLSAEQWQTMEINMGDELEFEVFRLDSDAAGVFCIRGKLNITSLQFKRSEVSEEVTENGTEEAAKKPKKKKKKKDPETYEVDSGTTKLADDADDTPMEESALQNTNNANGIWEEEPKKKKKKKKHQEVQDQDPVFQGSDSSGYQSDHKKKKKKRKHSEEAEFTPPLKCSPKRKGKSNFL
UniProt P51668: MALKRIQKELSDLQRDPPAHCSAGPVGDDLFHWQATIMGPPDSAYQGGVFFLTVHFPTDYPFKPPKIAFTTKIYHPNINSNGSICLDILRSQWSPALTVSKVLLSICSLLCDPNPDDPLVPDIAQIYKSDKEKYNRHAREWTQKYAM
UniProt Q9UJ04: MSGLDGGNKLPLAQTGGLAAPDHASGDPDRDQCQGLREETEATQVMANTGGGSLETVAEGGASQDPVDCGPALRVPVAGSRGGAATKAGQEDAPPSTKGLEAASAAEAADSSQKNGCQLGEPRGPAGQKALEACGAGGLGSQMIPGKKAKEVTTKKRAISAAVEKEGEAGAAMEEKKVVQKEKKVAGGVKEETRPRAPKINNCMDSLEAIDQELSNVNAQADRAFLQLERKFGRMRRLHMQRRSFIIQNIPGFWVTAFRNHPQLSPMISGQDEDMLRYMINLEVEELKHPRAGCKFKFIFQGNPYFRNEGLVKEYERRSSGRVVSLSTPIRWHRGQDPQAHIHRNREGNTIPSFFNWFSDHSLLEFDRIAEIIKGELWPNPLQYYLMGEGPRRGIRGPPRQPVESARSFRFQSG
UniProt Q96AE7: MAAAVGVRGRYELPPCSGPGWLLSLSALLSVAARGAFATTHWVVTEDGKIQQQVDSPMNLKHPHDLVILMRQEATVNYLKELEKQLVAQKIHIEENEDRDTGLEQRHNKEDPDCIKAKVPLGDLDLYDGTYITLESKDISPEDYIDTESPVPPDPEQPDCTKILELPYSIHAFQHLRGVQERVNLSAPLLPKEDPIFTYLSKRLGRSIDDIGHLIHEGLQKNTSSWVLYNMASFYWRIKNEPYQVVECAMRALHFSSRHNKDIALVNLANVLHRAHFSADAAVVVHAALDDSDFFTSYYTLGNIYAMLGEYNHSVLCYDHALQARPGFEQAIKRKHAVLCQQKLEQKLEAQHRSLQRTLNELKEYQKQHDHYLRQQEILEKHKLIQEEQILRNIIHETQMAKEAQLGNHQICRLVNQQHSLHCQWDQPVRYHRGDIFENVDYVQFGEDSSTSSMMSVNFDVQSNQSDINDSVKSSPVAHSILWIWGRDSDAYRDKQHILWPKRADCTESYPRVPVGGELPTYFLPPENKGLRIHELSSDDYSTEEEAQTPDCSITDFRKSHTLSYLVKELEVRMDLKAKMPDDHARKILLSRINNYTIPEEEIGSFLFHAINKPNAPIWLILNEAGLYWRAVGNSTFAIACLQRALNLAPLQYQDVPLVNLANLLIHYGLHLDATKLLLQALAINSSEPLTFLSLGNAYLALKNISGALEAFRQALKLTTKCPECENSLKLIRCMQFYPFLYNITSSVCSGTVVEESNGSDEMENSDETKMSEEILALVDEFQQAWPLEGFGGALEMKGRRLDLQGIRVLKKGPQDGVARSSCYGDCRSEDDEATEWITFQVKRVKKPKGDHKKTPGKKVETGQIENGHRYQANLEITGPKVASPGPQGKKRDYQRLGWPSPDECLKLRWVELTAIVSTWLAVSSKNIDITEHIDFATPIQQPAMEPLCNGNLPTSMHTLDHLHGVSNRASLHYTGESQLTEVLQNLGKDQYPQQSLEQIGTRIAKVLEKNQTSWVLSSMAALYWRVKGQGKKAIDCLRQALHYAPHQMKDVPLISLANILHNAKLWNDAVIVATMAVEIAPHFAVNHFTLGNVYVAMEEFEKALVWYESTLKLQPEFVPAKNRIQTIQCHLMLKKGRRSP
UniProt P33981: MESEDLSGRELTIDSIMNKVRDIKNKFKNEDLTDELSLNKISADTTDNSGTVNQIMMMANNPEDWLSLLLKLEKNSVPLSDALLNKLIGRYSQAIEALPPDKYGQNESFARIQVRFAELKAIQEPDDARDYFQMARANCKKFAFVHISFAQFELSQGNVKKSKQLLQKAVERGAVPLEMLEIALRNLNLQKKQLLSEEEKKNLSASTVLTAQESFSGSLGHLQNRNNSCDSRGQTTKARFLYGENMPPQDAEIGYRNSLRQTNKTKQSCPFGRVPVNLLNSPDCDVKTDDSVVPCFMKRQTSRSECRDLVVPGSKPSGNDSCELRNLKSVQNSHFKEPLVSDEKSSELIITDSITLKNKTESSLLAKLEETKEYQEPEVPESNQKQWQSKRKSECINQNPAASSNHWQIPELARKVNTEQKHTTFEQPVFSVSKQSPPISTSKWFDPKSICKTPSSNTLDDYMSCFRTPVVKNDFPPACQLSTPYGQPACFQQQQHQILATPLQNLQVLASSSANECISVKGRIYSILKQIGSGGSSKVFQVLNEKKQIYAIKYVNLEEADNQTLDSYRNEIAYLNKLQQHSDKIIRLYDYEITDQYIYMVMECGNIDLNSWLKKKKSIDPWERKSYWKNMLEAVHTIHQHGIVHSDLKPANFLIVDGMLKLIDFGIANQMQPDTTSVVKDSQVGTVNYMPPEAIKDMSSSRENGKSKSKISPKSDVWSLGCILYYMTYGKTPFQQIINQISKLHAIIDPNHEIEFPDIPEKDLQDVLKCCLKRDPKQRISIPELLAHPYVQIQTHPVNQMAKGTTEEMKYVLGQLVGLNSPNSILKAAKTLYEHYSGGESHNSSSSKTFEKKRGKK
UniProt Q96RR1: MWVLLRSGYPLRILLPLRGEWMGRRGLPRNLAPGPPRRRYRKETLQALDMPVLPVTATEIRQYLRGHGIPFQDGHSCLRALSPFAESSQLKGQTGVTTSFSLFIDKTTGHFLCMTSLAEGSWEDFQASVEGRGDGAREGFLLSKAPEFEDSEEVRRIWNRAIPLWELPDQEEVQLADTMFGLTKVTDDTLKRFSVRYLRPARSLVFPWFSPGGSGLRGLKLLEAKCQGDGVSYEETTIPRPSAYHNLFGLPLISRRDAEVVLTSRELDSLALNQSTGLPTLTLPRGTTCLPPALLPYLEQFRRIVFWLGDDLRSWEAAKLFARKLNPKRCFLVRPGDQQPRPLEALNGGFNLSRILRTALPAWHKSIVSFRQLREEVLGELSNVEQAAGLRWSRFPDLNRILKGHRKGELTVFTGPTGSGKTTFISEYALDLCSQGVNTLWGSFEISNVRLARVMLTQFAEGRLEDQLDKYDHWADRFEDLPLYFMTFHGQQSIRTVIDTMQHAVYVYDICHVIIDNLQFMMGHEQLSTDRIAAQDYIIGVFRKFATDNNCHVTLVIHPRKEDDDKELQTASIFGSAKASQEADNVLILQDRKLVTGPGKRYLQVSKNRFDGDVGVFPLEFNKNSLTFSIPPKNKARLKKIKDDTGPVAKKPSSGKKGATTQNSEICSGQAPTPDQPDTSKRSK
UniProt A2RUC4: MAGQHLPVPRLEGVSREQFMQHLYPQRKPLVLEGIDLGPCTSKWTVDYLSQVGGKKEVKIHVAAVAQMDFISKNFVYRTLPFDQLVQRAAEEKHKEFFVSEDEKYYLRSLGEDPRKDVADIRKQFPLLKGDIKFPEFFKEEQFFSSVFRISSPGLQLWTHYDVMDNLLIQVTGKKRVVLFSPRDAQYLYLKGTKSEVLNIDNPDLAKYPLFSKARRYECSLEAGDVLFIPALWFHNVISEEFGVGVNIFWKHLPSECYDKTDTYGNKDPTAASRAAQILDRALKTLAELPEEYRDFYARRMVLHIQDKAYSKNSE

What follows are targets tested with CS(=O)(=O)c1ccc(-c2cnc(N)c(C(=O)Nc3ccccc3)n2)cc1 (assay: log2 fold change, soluble protein after heating vs DMSO (PISA); higher = thermal stabilisation; K562 cells, 10 uM, 30 min; active = over 0.2 and 3.5 SD of the protein, either way, in both replicates (recomputed)).
Outline: (§1)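 Soluble protein was defined as the supernatant after 21,000xg for 90 min. It came from K562 cells at 2×10^6 cells/mL given 10 μM compound for 30 min, heated in aliquots for 3 min across 48°C-58°C, pooled, and extracted in PBS with 0.5% NP-40 at 4°C, and was quantified by TMTpro 16plex LC-MS/MS with equalised channel sums. Thermal stability against control samples, from duplicates, is reported as log2 fold change.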

| Target | log2 fold change |
| --- | --- |
| TYK2 (UniProt P29597) | inactive: -0.022 |
| TXNDC2 (UniProt Q86VQ3) | inactive: 0.061 |
| TXNRD1 isoform 7 (UniProt Q16881) | inactive: 0.075 |
| TYRO3 (UniProt Q06418) | inactive: 0.208 |
| UBE2J2 isoform 3 (UniProt Q8N2K1) | inactive: 0.252 |
| TTC5 (UniProt Q8N0Z6) | inactive: -0.187 |
| TSPAN17 isoform 4 (UniProt Q96FV3) | inactive: 0.205 |
| TUBB8 (UniProt Q3ZCM7) | inactive: -0.165 |
| TTC14 (UniProt Q96N46) | inactive: 0.117 |
| TSPAN13 (UniProt O95857) | inactive: -0.055 |
| TUBD1 (UniProt Q9UJT1) | inactive: 0.072 |
| TWISTNB (UniProt Q3B726) | inactive: 0.085 |
| UBE2D1 (UniProt P51668) | inactive: 0.062 |

These targets were tested with C[C@@H](Oc1cc(-c2cnn(C3CCNCC3)c2)cnc1N)c1c(Cl)ccc(F)c1Cl [crizotinib] in the same assay as above.
Outline: as §1

| Target | log2 fold change |
| --- | --- |
| TUBGCP5 (UniProt Q96RT8) | inactive: -0.02 |
| U2AF1L5 (UniProt P0DN76) | inactive: -0.105 |
| TSPYL4 (UniProt Q9UJ04) | inactive: 0.054 |
| TUBGCP6 (UniProt Q96RT7) | inactive: -0.231 |
| UBE2M (UniProt M0QX69) | inactive: -0.073 |
| TTC17 isoform 2 (UniProt Q96AE7) | inactive: -0.031 |
| TUBB8 (UniProt Q3ZCM7) | inactive: 0.029 |
| TUBD1 (UniProt Q9UJT1) | inactive: -0.115 |
| TTC37 (UniProt Q6PGP7) | inactive: 0.121 |

The targets below were run with C[C@@H]1COCCN1C2=NC(=NC(=C2)C3(CC3)S(=O)(=O)C)C4=C5C=CNC5=CC=C4 in the same assay as above.
Outline: as §1

| Target | log2 fold change |
| --- | --- |
| TUBGCP5 (UniProt Q96RT8) | inactive: 0.043 |
| TXNRD1 isoform 7 (UniProt Q16881) | inactive: -0.026 |
| TYRO3 (UniProt Q06418) | inactive: -0.124 |
| UBE2J2 isoform 3 (UniProt Q8N2K1) | inactive: -0.076 |
| TTK (UniProt P33981) | inactive: -0.237 |
| TSPAN17 isoform 4 (UniProt Q96FV3) | inactive: -0.05 |
| TWNK (UniProt Q96RR1) | inactive: -0.158 |
| TSPAN13 (UniProt O95857) | inactive: 0.4 |
| TYW5 (UniProt A2RUC4) | inactive: 0.126 |
| TWISTNB (UniProt Q3B726) | inactive: 0.087 |
| TTC37 (UniProt Q6PGP7) | inactive: -0.116 |
